Data from PubChem BioAssay (NCATS).
This list was built around the results that the source calls inconclusive (neither active nor inactive); the mix of calls is not that of the screen. Where the call is inconclusive, the potency comes from a doubtful curve fit. The source made the active and inactive calls. Calls follow the shape of the dose curve; as a rule, active = well fitted cell-killing curve with a large enough effect; inconclusive = small, poorly fitted or top-dose-only effect, or effect the other way; inactive = no such curve, though single readings can be large or run the other way. Bridge positions count the residues as written; N and C are the ends. Where a SMILES comes first, the peptide text is derived from it. Square brackets hold non-standard residues; d marks the D form. Peptide text beside a SMILES is read from it. [ ]: non-standard residue; d: D form. The star is where a group is joined. * marks the point of attachment. ξ: configuration not given here. Sta = CC(C)C[C@H](N)[C@@H](O)CC(=O)O; Octanoyl(6-Me) = CCC(C)CCCCC(=O)*; ξThr(3R) = C[C@@H](O)C(N)C(=O)O; Isovaleryl = CC(C)CC(=O)*; dDab = NCC[C@@H](N)C(=O)O; Dab = NCC[C@H](N)C(=O)O

Experiment: Quantitative High-Throughput drug screen in 47 multiple myeloma cell lines against the NCATS MIPE library collection: U266_ATCC cell viability assay (AID 1919864); also: nearly all actives have a fitted effect of over 35% in size
Conditions: U266 myeloma viability, CellTiter-Glo ATP luminescence, 48 h; series mostly up to 45.8 µM; viability (% of DMSO control): at the top concentration
Source text: PI: Beverly A. Mock Ph.D.
Laboratory of Cancer Biology and Genetics,
Center for Cancer Research, National Cancer Institute,
National Institute of Health, Bethesda, Maryland
Drug resistance and disease progression are common in multiple myeloma (MM) patients, underscoring the need for new therapeutic combinations. […] We hypothesized that effective combinations would reduce MYC expression and enhance p16 activity. […] These preclinical data identify potentially useful drug combinations for evaluation in drug-resistant MM and reveal potential mechanisms of combined drug sensitivity.
Described herein is the primary MIPE qHTS used to cherrypick compounds. Validated compounds were then further tested for potential synergistic activiy.
[1] Peat TJ, Gaikwad SM, Dubois W, Gyabaah-Kessie N, Zhang S, Gorjifard S, Phyo Z, Andres M, Hughitt VK, Simpson RM, Miller MA, Girvin AT, Taylor A, Williams D, D'Antonio N, Zhang Y, Rajagopalan A, Flietner E, Wilson K, Zhang X, Shinn P, Klumpp-Thomas C, McKnight C, Itkin Z, Chen L, Kazandijian D, Zhang J, Michalowski AM, Simmons JK, Keats J, Thomas CJ, Mock BA. Drug combinations identified by high-throughput screening promote cell cycle transition and upregulate Smad pathways in myeloma. Cancer Lett. 2023 Aug 1;568:216284. doi: 10.1016/j.canlet.2023.216284. Epub 2023 Jun 24. PMID: 37356470; PMCID: PMC10408729.
SEQUENCE No. (e.g., 1, 2, 3, etc.); […] (e.g., Cells, Incubation, Reagent, etc.); VALUE and DESCRIPTION.
1; Cells; 5 uL; white, solid bottom 1536-well Greiner assay plate.
2; Compounds; 23 nL; Kalypsis pin tool (Wako USA) equipped with a 1536-well pin head to transfer to the assay plates.
3; Incubation; 48 hours; 37C incubation.
4; Reagent;5uL; CellTiter Glo (Promega).
5; Detector; 425V; Luminescence; Viewlux PerkinElmer.
NOTES (numbers refer to Sequence numbers above)
1. The cell-based screening methods employed in this study were like those previously published. Briefly, the corresponding myeloma cell lines were screened in 1,536-well plates with 500 cells, 5-uL per well for inhibition of cell viability (assessed by measuring ATP levels with CellTiterGlo).
2. NCATS MIPE 4.0 library of approved and investigational drugs were added using the Kalypsis pin tool. Wells treated with DMSO only for 100% viability and media only for 0% viability were used as controls.
3. The assay plates were covered and incubated for 48 hours in a 37C, 5% CO2 incubator with controlled humidity.
4. After 48 hours, CellTilter-GloTM luminescent substrate mix (Promega) reagent was added to the assay plate and plates we incubated for 5 min at room temperature.
5. Signal was measured as median relative luminescence units on a ViewLux (PerkinElmer) multiplate reader.
[1] Heske CM, Davis MI, Baumgart JT, Wilson K, Gormally MV, Chen L, Zhang X, Ceribelli M, Duveau DY, Guha R, Ferrer M, Arnaldez FI, Ji J, Tran HL, Zhang Y, Mendoza A, Helman LJ, Thomas CJ. Matrix Screen Identifies Synergistic Combination of PARP Inhibitors and Nicotinamide Phosphoribosyltransferase (NAMPT) Inhibitors in Ewing Sarcoma. Clin Cancer Res. 2017 Dec 1;23(23):7301-7311. doi: 10.1158/1078-0432.CCR-17-1121. Epub 2017 Sep 12. PMID: 28899971; PMCID: PMC6636827.
Potency is read from the fitted curve at half-maximal effect.

| Structure (SMILES) | Potency | viability (% of DMSO control) |
| --- | --- | --- |
| CON(C)C(=O)N1N=C(c2cc(F)ccc2F)S[C@]1(CCCN)c1ccccc1 | inconclusive: 37.2 µM [cytotoxic, single point] |  |
| CN1CCC(=C2c3ccccc3CC(=O)c3sccc32)CC1 | inconclusive: 23.5 µM [cytotoxic, single point] |  |
| CO[C@H]1/C=C\O[C@@]2(C)Oc3c(C)c(O)c4c(O)c(c5c(nc6cc(C)ccn65)c4c3C2=O)NC(=O)C(C)=CC=C[C@H](C)[C@H](O)[C@@H](C)[C@@H](O)[C@@H](C)[C@H](OC(C)=O)[C@H]1C | inconclusive: 16.6 µM [cytotoxic, partial curve, poor fit] |  |
| CCC(C)N(C)C(=O)c1cc2ccccc2c(-c2ccccc2Cl)n1 (stereo not given) | inconclusive: 20.9 µM [cytotoxic, partial curve, poor fit] |  |
| O=C(C1CCCCC1)N1CC(=O)N2CCc3ccccc3C2C1 (stereo not given) |  | inactive: 115% |
| O=C1NC(=O)C(=Cc2cccc(C(F)(F)F)c2)S1 | inconclusive: 37.2 µM [cytotoxic, single point] |  |
| CC(C)CC(=O)N[C@H](C(=O)N[C@H](C(=O)N[C@@H](CC(C)C)[C@@H](O)CC(=O)N[C@@H](C)C(=O)N[C@@H](CC(C)C)[C@@H](O)CC(=O)O)C(C)C)C(C)C (Isovaleryl-VV[Sta]A[Sta]-OH) | inconclusive: 0.0053 µM [rising, full curve, poor fit] |  |
| Cc1ncc([N+](=O)[O-])n1CCO | inconclusive: 0.0033 µM [rising, full curve, poor fit] |  |
| CNC[C@H](O)c1cccc(O)c1 | inconclusive: 0.833 µM [rising, partial curve, poor fit] |  |
| CC(C)(C)C(=O)Oc1ccc2c(c1)nc(NC(=O)c1cccc([N+](=O)[O-])c1)n2CCCO | inconclusive: 37.2 µM [cytotoxic, single point] |  |
| CC(C)(C#N)c1cc(Cn2cncn2)cc(C(C)(C)C#N)c1 | inconclusive: 11.8 µM [cytotoxic, partial curve, poor fit] |  |
| CCN(C(=O)c1c(O)c2c(Cl)cccc2n(C)c1=O)c1ccccc1 |  | inactive: 130% |
| Cc1cnc(C(=O)O)c[n+]1[O-] |  | inactive: 123% |
| Cc1cc2c(cc1C1(c3ccc(C(=O)O)cn3)CC1)C(C)(C)CCC2(C)C |  | inactive: 141% |
| CC(C)NCC(O)c1ccc(NS(C)(=O)=O)cc1 (stereo not given) | inconclusive: 6.62 µM [cytotoxic, full curve, poor fit] |  |
| CC=CC(=O)N(CC)c1ccccc1C |  | inactive: 110% |
| COc1ccc(Nc2nccc(NCCO)n2)cc1 | inconclusive: 0.0526 µM [rising, full curve, poor fit] |  |
| CCC(C)CCCCC(=O)N[C@@H](CCN)C(=O)NC(C(=O)N[C@H](CCN)C(=O)N[C@@H]1CCNC(=O)C([C@@H](C)O)NC(=O)[C@@H](CCN)NC(=O)[C@@H](CCN)NC(=O)[C@@H](CC(C)C)NC(=O)[C@H](Cc2ccccc2)NC(=O)[C@H](CCN)NC1=O)[C@@H](C)O (stereo partly drawn) ({Octanoyl(6-Me)}-[Dab][ξThr(3R)][dDab][dDab][Dab]F[dL][dDab][dDab][ξThr(3R)]; lactam 4-C) | inconclusive: 0.469 µM [rising, full curve, poor fit] |  |
| CCOC(CN1C(=O)[C@](CC(=O)Nc2ccc(C)cc2)(NC(=O)Nc2ccc(C)cc2)c2ccccc21)OCC | inconclusive: 37.2 µM [cytotoxic, single point] |  |
| C=C(C)[C@@H]1CC[C@]2(C)CC[C@]3(C)[C@H](CC[C@@H]4[C@@]5(C)CC[C@H](O)C(C)(C)[C@H]5CC[C@]43C)[C@@H]12 | inconclusive: 0.148 µM [rising, full curve, poor fit] |  |

Reformatted as comma-separated lines: entries from further up
Structure (SMILES),Potency,viability (% of DMSO control)
CON(C)C(=O)N1N=C(c2cc(F)ccc2F)S[C@]1(CCCN)c1ccccc1,"inconclusive: 37.2 µM [cytotoxic, single point]",
CO[C@H]1/C=C\O[C@@]2(C)Oc3c(C)c(O)c4c(O)c(c5c(nc6cc(C)ccn65)c4c3C2=O)NC(=O)C(C)=CC=C[C@H](C)[C@H](O)[C@@H](C)[C@@H](O)[C@@H](C)[C@H](OC(C)=O)[C@H]1C,"inconclusive: 16.6 µM [cytotoxic, partial curve, poor fit]",
CCC(C)N(C)C(=O)c1cc2ccccc2c(-c2ccccc2Cl)n1 (stereo not given),"inconclusive: 20.9 µM [cytotoxic, partial curve, poor fit]",
O=C(C1CCCCC1)N1CC(=O)N2CCc3ccccc3C2C1 (stereo not given),,inactive: 115%
CC(C)CC(=O)N[C@H](C(=O)N[C@H](C(=O)N[C@@H](CC(C)C)[C@@H](O)CC(=O)N[C@@H](C)C(=O)N[C@@H](CC(C)C)[C@@H](O)CC(=O)O)C(C)C)C(C)C (Isovaleryl-VV[Sta]A[Sta]-OH),"inconclusive: 0.0053 µM [rising, full curve, poor fit]",
CC(C)(C)C(=O)Oc1ccc2c(c1)nc(NC(=O)c1cccc([N+](=O)[O-])c1)n2CCCO,"inconclusive: 37.2 µM [cytotoxic, single point]",
CC(C)NCC(O)c1ccc(NS(C)(=O)=O)cc1 (stereo not given),"inconclusive: 6.62 µM [cytotoxic, full curve, poor fit]",
CCC(C)CCCCC(=O)N[C@@H](CCN)C(=O)NC(C(=O)N[C@H](CCN)C(=O)N[C@@H]1CCNC(=O)C([C@@H](C)O)NC(=O)[C@@H](CCN)NC(=O)[C@@H](CCN)NC(=O)[C@@H](CC(C)C)NC(=O)[C@H](Cc2ccccc2)NC(=O)[C@H](CCN)NC1=O)[C@@H](C)O (stereo partly drawn) ({Octanoyl(6-Me)}-[Dab][ξThr(3R)][dDab][dDab][Dab]F[dL][dDab][dDab][ξThr(3R)]; lactam 4-C),"inconclusive: 0.469 µM [rising, full curve, poor fit]",
C=C(C)[C@@H]1CC[C@]2(C)CC[C@]3(C)[C@H](CC[C@@H]4[C@@]5(C)CC[C@H](O)C(C)(C)[C@H]5CC[C@]43C)[C@@H]12,"inconclusive: 0.148 µM [rising, full curve, poor fit]",

Going on with the list:

| Structure (SMILES) | Potency | viability (% of DMSO control) |
| --- | --- | --- |
| CO[C@@H](C(=O)N1Cc2[nH]nc(NC(=O)c3ccc(N4CCN(C)CC4)cc3)c2C1)c1ccccc1 | inconclusive: 20.9 µM [cytotoxic, partial curve, poor fit] |  |
| CNC(=O)c1cc(Oc2ccc(NC(=O)Nc3ccc(Cl)c(C(F)(F)F)c3)c(F)c2)ccn1 | inconclusive: 0.001 µM |  |
| O=C(NC1CCOCC1)c1ccc(-c2cc(-c3cn[nH]c3-c3ccccn3)ccn2)cc1 |  | inactive: 124% |
| CC(C)(C)NCC(O)c1ccc(O)c(CO)c1 (stereo not given) |  | inactive: 133% |
| CC(=O)OCC(=O)[C@@]1(O)[C@H](C)C[C@H]2[C@@H]3C=C(C)C4=Cc5c(cnn5-c5ccccc5)C[C@]4(C)[C@@H]3[C@@H](O)C[C@@]21C | active: 7.43 µM |  |
| COc1cc(C(=O)NC2CCN(C)CC2)ccc1Nc1ncc2c(n1)N(C1CCCC1)CCC(=O)N2C(C)C | active: 18.7 µM |  |
| CCOc1ccc(Nc2nc(-c3c(C)nc4ccccn34)cs2)cc1 | inconclusive: 0.418 µM [cytotoxic, full curve] |  |
| CN[C@@H](C)C(=O)N[C@H]1CN(C(=O)CC(C)C)CC[C@H]2CC[C@@H](C(=O)NC(c3ccccc3)c3ccccc3)N2C1=O | inconclusive: 0.0235 µM [rising, full curve, poor fit] |  |
| CC1(C)C(=O)N(CCN2CCC(C(=O)c3ccc(F)cc3)CC2)c2ccccc21 | inconclusive: 0.0105 µM [rising, full curve] |  |
| CCC(=O)NC[C@H](Cc1ccc(OCCc2nc(-c3ccccc3)oc2C)cc1)NC(C)=CC(=O)c1ccc(C(F)(F)F)cc1 |  | inactive: 113% |
| CCn1cc(C(=O)O)c(=O)c2ccc(C)nc21 | inconclusive: 0.0015 µM [rising, full curve, poor fit] |  |
| CC[C@@H]1C=C(C)C[C@H](C)C[C@H](OC)[C@H]2O[C@@](O)(C(=O)C(=O)N3CCCC[C@@H]3C(=O)O[C@H](C(C)=C[C@@H]3CC[C@H](Cl)[C@H](OC)C3)[C@H](C)[C@@H](O)CC1=O)[C@H](C)C[C@H]2OC | inconclusive: 0.0296 µM [rising, full curve, poor fit] |  |
| O=C(NCc1ccncc1)C12C[C@H]3C[C@@H](C1)CC(c1ccc(Cl)cc1)(C3)C2 | active: 16.6 µM |  |
| CC(C)(Cc1ccc2ccccc2c1)NC[C@@H](O)COc1cccc(Cl)c1C#N |  | inactive: 120% |
| Nc1cc(C(Cl)=C(Cl)Cl)c(S(N)(=O)=O)cc1S(N)(=O)=O |  | inactive: 127% |
| Nc1nc2c(ncn2COCCO)c(=O)[nH]1 |  | inactive: 117% |
| O=C(O)c1cn(-c2ccc(F)cc2)c2cc(N3CCNCC3)c(F)cc2c1=O | inconclusive: 18.7 µM [cytotoxic, partial curve, poor fit] |  |
| CN(C)CCc1c[nH]c2ccc(Cn3cncn3)cc12 |  | inactive: 121% |
| O=C(O)C1=CO[C@@H](O[C@@H]2O[C@H](CO)[C@H](O)[C@H](O)[C@H]2O)[C@@H]2C(CO)=CC[C@H]12 | inconclusive: 33.2 µM [cytotoxic, single point] |  |
| Cn1c(=O)c2[nH]cnc2n(C)c1=O | active: 20.9 µM |  |
